This note sets out measurements from article PMC7054317, “Mammalian ALKBH1 serves as an N^6-mA demethylase of unpairing DNA” (Cell Research, 2020).

Construct, isoform or probe ends are uncertain for at least one entry. Where a protein sequence is shown, tags need not be part of it.

The data set deals with T1, ALKBH1 20-355 crosslinking mutant S235C,C129S,C300S,C304S,C322S (mouse) (UniProt P0CB42).
T1 sequence (looked up): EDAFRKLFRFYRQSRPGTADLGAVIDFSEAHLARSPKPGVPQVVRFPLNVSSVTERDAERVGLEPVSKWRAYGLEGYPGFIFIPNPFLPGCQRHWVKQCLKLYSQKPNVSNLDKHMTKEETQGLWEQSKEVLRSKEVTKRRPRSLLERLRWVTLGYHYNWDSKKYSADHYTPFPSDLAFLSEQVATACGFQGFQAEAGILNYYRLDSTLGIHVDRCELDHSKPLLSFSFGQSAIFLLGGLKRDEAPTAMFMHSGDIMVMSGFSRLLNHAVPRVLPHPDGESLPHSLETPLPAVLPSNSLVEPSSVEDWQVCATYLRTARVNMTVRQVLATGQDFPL
The experiment in a line: crystal structure (2.4 A). Particulars: disulfide cross-linked via S235C, crystallized with MnCl2 and NOG/succinic acid; disulfide-modified cytosine (C*) in the bulge, position 10 of strand 1 (mark follows it); recombinant protein; residues 20-355; protein details: His-tag removed by PreScission.

Regarding “GCTGAGTGCCCGCGTGCTGGATCC / GGATCCAGCACGCCACTCAGC [21_bulge3]”, the binding result is “binds”.
